The target in this assay is T1, DNAX activation protein of 12 kDa (DAP12) (pig (endogenous in PAMs)) (UniProt Q9TU45).
T1 sequence: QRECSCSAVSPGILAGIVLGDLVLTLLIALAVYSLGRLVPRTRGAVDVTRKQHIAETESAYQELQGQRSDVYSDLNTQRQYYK
Nature of the assay: affinity purification with mass spectrometry; PAMs infected with PRRSV (MOI = 1) for 1 h; IP with anti-DAP12 MAb, isotype IgG as control; SDS-PAGE, silver staining, discrepant bands analysed by MALDI-TOF MS.

Results are given in words; binding and its absence hold for the method and conditions named. Binding seen in cells or lysates may run through a third protein. These calls come from enrichment with a bait or labelling near it, and not all partners need be listed.

“nonmuscle myosin heavy chain IIA (NMHC-IIA) (pig (endogenous in PAMs))”: the binding result is recorded as “binds”.

Values taken from paper PMC6509187.
